PubChem BioAssay AID686943 | Drosophila RNAi Screening Center, 2013
In all, the deposit lists about 23,000 reagents; this is a random part of those with a known target gene and a result. 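Extra replicates exist only for a retested subset of genes; insulin dose and duration not given; both raised and lowered dpERK matter.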 Not all columns of the deposit are shown. The record does not give: the amount of reagent, the time to read-out.

Assay: 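Knockdowns that increase or decrease active ERK after insulin receptor stimulation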 (primary screen)
System: Drosophila S2R+ haemocyte-like cells expressing YFP-tagged ERK (Rolled)
Reagents: long dsRNA against Drosophila genes
Conditions: insulin stimulation versus unstimulated cells; dose and duration not given
Detection: 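Antibody staining for doubly phosphorylated ERK divided by ERK-YFP signal, as plate z-scores, in insulin-treated and untreated cells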
Reading the numbers: replicate 1, z-score of dpERK with insulin and replicate 2, z-score of dpERK with insulin: higher = more active ERK per ERK-YFP after insulin

For CG34251 [DRSC09498], what was measured?
replicate 1, z-score of dpERK with insulin: 0.38; replicate 2, z-score of dpERK with insulin: -0.21

What is on record for CG34251 [DRSC09500]?
replicate 1, z-score of dpERK with insulin: 0.55; replicate 2, z-score of dpERK with insulin: -0.37

What did the screen give for CG3500 [DRSC04379]?
replicate 1, z-score of dpERK with insulin: 0.06; replicate 2, z-score of dpERK with insulin: -0.36

With aop (anterior open) [DRSC00801], how do the results read?
replicate 1, z-score of dpERK with insulin: -3.3; replicate 2, z-score of dpERK with insulin: -3.61

For AnxB11 (Annexin B11) [DRSC19331], what was measured?
replicate 1, z-score of dpERK with insulin: 0.95; replicate 2, z-score of dpERK with insulin: 0.34

What is on record for CG17376 [DRSC21717]?
replicate 1, z-score of dpERK with insulin: 0.11; replicate 2, z-score of dpERK with insulin: -0.82

What is on record for Lpin (Lipin) [DRSC07241]?
replicate 1, z-score of dpERK with insulin: 0.5; replicate 2, z-score of dpERK with insulin: 0.45

For CG14230 [DRSC19586], what does the deposit list?
replicate 1, z-score of dpERK with insulin: 1.77; replicate 2, z-score of dpERK with insulin: 1.74

For CG17944 [DRSC12572], what was measured?
replicate 1, z-score of dpERK with insulin: -1.73; replicate 2, z-score of dpERK with insulin: -2.15

For ZnT86D (Zinc transporter 86D) [DRSC16091], what does the deposit list?
replicate 1, z-score of dpERK with insulin: 0.42; replicate 2, z-score of dpERK with insulin: 0.2

With Lmx1a (LIM homeobox transcription factor 1 alpha) [DRSC09726], how do the results read?
replicate 1, z-score of dpERK with insulin: 0.18; replicate 2, z-score of dpERK with insulin: -0.55

For Lmx1a (LIM homeobox transcription factor 1 alpha) [DRSC10275], what was measured?
replicate 1, z-score of dpERK with insulin: -3.97; replicate 2, z-score of dpERK with insulin: -2.67

What is on record for RpL37A (Ribosomal protein L37A) [DRSC02899]?
replicate 1, z-score of dpERK with insulin: -1.74; replicate 2, z-score of dpERK with insulin: -1.97

What is on record for Snx17 (Sorting nexin 17) [DRSC02884]?
replicate 1, z-score of dpERK with insulin: 0.45; replicate 2, z-score of dpERK with insulin: 1.67

What did the screen give for CG4563 [DRSC04474]?
replicate 1, z-score of dpERK with insulin: -0.26; replicate 2, z-score of dpERK with insulin: 0.13

How did the screen score CG12795 [DRSC00354]?
replicate 1, z-score of dpERK with insulin: 0.87; replicate 2, z-score of dpERK with insulin: -0.45

How did the screen score CG15506 [DRSC15047]?
replicate 1, z-score of dpERK with insulin: -0.84; replicate 2, z-score of dpERK with insulin: -1.01

With bumpel [DRSC16100], how do the results read?
replicate 1, z-score of dpERK with insulin: 1.16; replicate 2, z-score of dpERK with insulin: 0.79

Part of the list above in another layout:
{"Gene": "CG34251", "dsRNA": "DRSC09498", "replicate 1, z-score of dpERK with insulin": 0.38, "replicate 2, z-score of dpERK with insulin": -0.21}
{"Gene": "CG34251", "dsRNA": "DRSC09500", "replicate 1, z-score of dpERK with insulin": 0.55, "replicate 2, z-score of dpERK with insulin": -0.37}
{"Gene": "CG3500", "dsRNA": "DRSC04379", "replicate 1, z-score of dpERK with insulin": 0.06, "replicate 2, z-score of dpERK with insulin": -0.36}
{"Gene": "aop (anterior open)", "dsRNA": "DRSC00801", "replicate 1, z-score of dpERK with insulin": -3.3, "replicate 2, z-score of dpERK with insulin": -3.61}

Additional records follow.
What is on record for dgt6 (dim gamma-tubulin 6) [DRSC14424]?
replicate 1, z-score of dpERK with insulin: -1.18; replicate 2, z-score of dpERK with insulin: -0.38

What is on record for TTLL4A (Tubulin tyrosine ligase-like 4A) [DRSC02528]?
replicate 1, z-score of dpERK with insulin: 0.39; replicate 2, z-score of dpERK with insulin: 0.55

With CG33270 [DRSC10584], what does the deposit list?
replicate 1, z-score of dpERK with insulin: -2.11; replicate 2, z-score of dpERK with insulin: -1.83

What did the screen give for Plod (procollagen lysyl hydroxylase) [DRSC10601]?
replicate 1, z-score of dpERK with insulin: 0.38; replicate 2, z-score of dpERK with insulin: 0.11

What is on record for Plod (procollagen lysyl hydroxylase) [DRSC10602]?
replicate 1, z-score of dpERK with insulin: -0.22; replicate 2, z-score of dpERK with insulin: 0.08

How did the screen score CG10710 [DRSC09784]?
replicate 1, z-score of dpERK with insulin: -0.13; replicate 2, z-score of dpERK with insulin: 0.75

Which result is listed for CG12321 [DRSC14499]?
replicate 1, z-score of dpERK with insulin: -0.88; replicate 2, z-score of dpERK with insulin: -1.11

What did the screen give for Mrp5 (Multidrug resistance protein 5) [DRSC15597]?
replicate 1, z-score of dpERK with insulin: -0.95; replicate 2, z-score of dpERK with insulin: 0

For Mrp5 (Multidrug resistance protein 5) [DRSC15598], what was measured?
replicate 1, z-score of dpERK with insulin: 0.42; replicate 2, z-score of dpERK with insulin: -0.45

With chp (chaoptin) [DRSC16925], how do the results read?
replicate 1, z-score of dpERK with insulin: 0.03; replicate 2, z-score of dpERK with insulin: 0.11

What is on record for CG12483 [DRSC08278]?
replicate 1, z-score of dpERK with insulin: -0.32; replicate 2, z-score of dpERK with insulin: -0.64

For Cda9 (Chitin deacetylase-like 9) [DRSC06593], what does the deposit list?
replicate 1, z-score of dpERK with insulin: -0.55; replicate 2, z-score of dpERK with insulin: 0.52

With vrs (versager) [DRSC15832], what was measured?
replicate 1, z-score of dpERK with insulin: 0.07; replicate 2, z-score of dpERK with insulin: 1.05
